Laboratory results published in article PMC5437272.
No constants are given. Whether binding was seen depends on the method and setting. Binding seen in cells or lysates may run through a third protein. Binding calls can cover weak binding; strength is not graded here. For some assays here: Where a sequence is shown, tags or fusion partners need not be part of it.

The chains behind the UniProt entries cited, without tags or fusion partners. Where a name states a change or a piece, a line headed by the entry shows the natural chain unless it says otherwise.
UniProt Q9DCB8: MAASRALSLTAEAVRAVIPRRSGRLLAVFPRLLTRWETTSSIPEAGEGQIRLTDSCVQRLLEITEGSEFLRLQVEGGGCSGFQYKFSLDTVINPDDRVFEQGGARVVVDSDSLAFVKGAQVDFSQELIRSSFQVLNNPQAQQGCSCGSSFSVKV
UniProt Q8CAK1: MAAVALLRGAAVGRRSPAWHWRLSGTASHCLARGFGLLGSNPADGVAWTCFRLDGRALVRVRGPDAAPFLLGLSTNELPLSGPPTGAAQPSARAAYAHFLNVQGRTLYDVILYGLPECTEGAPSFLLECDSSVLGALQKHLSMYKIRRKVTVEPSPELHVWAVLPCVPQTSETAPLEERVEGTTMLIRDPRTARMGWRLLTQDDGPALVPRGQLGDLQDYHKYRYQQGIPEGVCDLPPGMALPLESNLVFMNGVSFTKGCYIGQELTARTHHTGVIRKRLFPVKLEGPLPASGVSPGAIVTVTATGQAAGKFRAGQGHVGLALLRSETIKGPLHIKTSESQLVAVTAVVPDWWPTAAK

How the values were obtained:
[1] = target: ISCA2-Flag (mouse ISCA2 with a C-terminal Flag epitope) (mouse) (UniProt Q9DCB8); assay: co-IP; Flag M2 resin IP from mitochondria-enriched extracts of N2a cells transfected with ISCA1-Flag, ISCA2-Flag or IBA57-Flag, versus control IP; western blot of the eluates
[2] = target: T1, ISCA1-Flag (mouse ISCA1 with a C-terminal Flag epitope) (mouse) (UniProt Q9D924); assay: as above
T1 sequence: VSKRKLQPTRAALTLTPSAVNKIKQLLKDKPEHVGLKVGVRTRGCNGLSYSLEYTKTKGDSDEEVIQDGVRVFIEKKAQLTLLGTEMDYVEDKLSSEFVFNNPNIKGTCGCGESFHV

binding [1] | binding [2] | Substance
binds | – | IBA57 (endogenous, N2a) (from UniProt Q8CAK1)
– | binds | ISCA2 (endogenous, N2a) (from UniProt Q9DCB8)
